PubChem BioAssay AID504772, Drosophila RNAi Screening Center, 2011
Only reagents picked out of a larger screen are listed. 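Only primary screen hits listed, as up or down without numbers; fold changes behind calls not deposited; all reporter-lowering hits marked not picked.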 Entries without a mark were called inactive. Names joined by + are all predicted targets of the reagent. No sequences are given here. The record does not give: the amount of reagent, the dose of the treatment.

Test: 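Genes that raise or lower Wnt activity at the LRP6 co-receptor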 (primary screen)
Cells: Drosophila clone 8 cells
Reagents: long dsRNA against Drosophila genes
Time to read-out: four days
Treatment: pathway switched on by co-transfected constitutively active LRP6 lacking its extracellular part (DeltaNLRP6)
Read-out: 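Wnt reporter luminescence divided by Renilla signal, recorded as a rise or fall, four days after knockdown in cells made active by an LRP6 form missing its extracellular part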
Active means: 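Picked genes show at least a doubling of Wnt reporter light upon knockdown and have a known human equivalent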
Meaning of the calls: active = picked as conserved enhancer hit; inactive = not picked

| reporter change after knockdown | target gene | amplicon |
| --- | --- | --- |
| reporter signal went down | ap (apterous) | DRSC04917 |
| reporter signal went down | CG32425 | DRSC11739 |
| reporter signal went down | Bx (Beadex) | DRSC19350 |
| reporter signal went up | CG30053 | DRSC07260 |
| reporter signal went up | I-t (inhibitor-t) | DRSC16713 |
| reporter signal went down | Arms (Ankyrin repeat-rich membrane spanning) | DRSC04256 |
| reporter signal went up | SmB (Small ribonucleoprotein particle protein SmB) | DRSC03437 |
| reporter signal went up | Taf1 (TBP-associated factor 1) | DRSC12607 |
| reporter signal went up | Taf7 (TBP-associated factor 7) | DRSC15445 |
| reporter signal went down | Rnb (R and B) | DRSC16325 |
| reporter signal went down | ringer (ringmaker) | DRSC10455 |
| reporter signal went up | crol (crooked legs) | DRSC03514 |
| reporter signal went up | CG11790 | DRSC14390 |
| reporter signal went down | Rab26 | DRSC11837 |
| reporter signal went up | Trf2 (TATA box binding protein-related factor 2) | DRSC18727 |
| reporter signal went down | ken (ken and barbie) | DRSC04696 |
| reporter signal went up | ubl (ubiquitin like) | DRSC04998 |
| reporter signal went down | unc-13-4A | DRSC10203 |
| reporter signal went down | CG32547 | DRSC19626 |
| reporter signal went down | CG32137 | DRSC10272 |
| reporter signal went up | Rcd2 (Reduction in Cnn dots 2) | DRSC11756 |
| reporter signal went down | lola (longitudinals lacking) | DRSC06742 |
| reporter signal went up | His2Av (Histone H2A variant) | DRSC16702 |
| reporter signal went up (active) | Hsc70-3 (Heat shock protein 70 cognate 3) | DRSC20253 |
| reporter signal went down | TwdlK (TweedleK) | DRSC16045 |
| reporter signal went up | emb (embargoed) | DRSC03528 |
| reporter signal went up (active) | ash1 (absent, small, or homeotic discs 1) | DRSC11325 |
| reporter signal went down | Elp4 (Elongator complex protein 4) | DRSC02999 |
| reporter signal went down | CG5402 | DRSC15792 |
| reporter signal went down | CG42404 | DRSC15558 |
| reporter signal went up | Bap55 (Brahma associated protein 55kD) | DRSC07000 |
| reporter signal went down | RhoGEF64C (Rho guanine nucleotide exchange factor at 64C) | DRSC08319 |
| reporter signal went up | CG14454 | DRSC11711 |
| reporter signal went down | eRF1 (eukaryotic translation release factor 1) | DRSC11779 |
| reporter signal went up | CG5938 | DRSC15923 |
| reporter signal went up (active) | bel (belle) | DRSC16555 |
| reporter signal went down | lilli (lilliputian) | DRSC00708 |
| reporter signal went down | CG6118 | DRSC15968 |
| reporter signal went down | RpL13A (Ribosomal protein L13A) | DRSC12265 |
| reporter signal went up | Nup154 (Nucleoporin 154kD) | DRSC03384 |
| reporter signal went up | Hibch (3-hydroxyisobutyryl-CoA hydrolase) | DRSC15705 |
| reporter signal went down | CG13784 | DRSC02287 |
| reporter signal went down | tn (thin) | DRSC06532 |
| reporter signal went down | Chi (Chip) | DRSC04602 |
| reporter signal went down | lig (lingerer) | DRSC07247 |
| reporter signal went up | htk (hat-trick) | DRSC20031 |
| reporter signal went down | tral (trailer hitch) | DRSC09779 |
| reporter signal went up | Gas41 | DRSC03156 |
| reporter signal went up | SkpB (SKP1-related B) | DRSC07683 |
| reporter signal went down | gish (gilgamesh) | DRSC16154 |
| reporter signal went down | scny (scrawny) | DRSC10509 |
| reporter signal went down | CG1161 | DRSC12180 |
| reporter signal went up | NC2alpha (Negative Cofactor 2alpha) | DRSC04059 |
| reporter signal went up (active) | Tnpo (Transportin) | DRSC11309 |
| reporter signal went up (active) | Mfap1 (Microfibril-associated protein 1) | DRSC08154 |
| reporter signal went up | Xpd (Xeroderma pigmentosum D) | DRSC04666 |
| reporter signal went up | eEF1delta (eukaryotic translation elongation factor 1 delta) | DRSC02790 |
| reporter signal went down | mdu (meduse) | DRSC19860 |
| reporter signal went up | mof (males absent on the first) | DRSC18795 |
| reporter signal went up | Klp31E (Kinesin-like protein at 31E) | DRSC03354 |
| reporter signal went down | Wdr33 (WD repeat domain 33) | DRSC12162 |
| reporter signal went up | CG32712 | DRSC17820 |
| reporter signal went up | AGO2 (Argonaute 2) | DRSC10847 |
| reporter signal went down | Meics (Meiotic central spindle) | DRSC11413 |
| reporter signal went up | Acox3 (Acyl-CoA oxidase 3) | DRSC03251 |
| reporter signal went up (active) | Fs(2)Ket (Female sterile (2) Ketel) | DRSC03328 |
| reporter signal went up | MESR4 (Misexpression suppressor of ras 4) | DRSC06901 |
| reporter signal went down | CG13739 | DRSC06410 |
| reporter signal went up | CG43736 + CG33692 (retired record) | DRSC18370 |
| reporter signal went up | CG1737 | DRSC19771 |
| reporter signal went down | CCHa1 (CCHamide-1) | DRSC14821 |
| reporter signal went down | L (Lobe) | DRSC06666 |
| reporter signal went down | Hipk (Homeodomain interacting protein kinase) | DRSC08507 |
| reporter signal went down | CG10969 | DRSC09811 |
| reporter signal went up | Taf4 (TBP-associated factor 4) | DRSC11297 |
| reporter signal went up | Nipped-A | DRSC04882 |
| reporter signal went up | Nipped-A | DRSC04884 |
| reporter signal went up | Nipped-A | DRSC07738 |
| reporter signal went down | lgs (legless) | DRSC17152 |
| reporter signal went down | arm (armadillo) | DRSC18738 |
| reporter signal went up | BtbVII (BTB-protein-VII) | DRSC08151 |
| reporter signal went up | Rcd1 (Reduction in Cnn dots 1) | DRSC07116 |
| reporter signal went down | sick (sickie) | DRSC02303 |
| reporter signal went up | Rbp9 (RNA-binding protein 9) | DRSC00779 |
| reporter signal went down | mi (minus) | DRSC04498 |
| reporter signal went down | CycT (Cyclin T) | DRSC11124 |
| reporter signal went up | mle (maleless) | DRSC04921 |
| reporter signal went down | CG13711 | DRSC08320 |
| reporter signal went up (active) | Ran | DRSC20364 |
| reporter signal went up | rin (rasputin) | DRSC17045 |
| reporter signal went up | Vps4 (Vacuolar protein sorting 4) | DRSC19338 |
| reporter signal went down | Pig1 (Pre-intermoult gene 1) | DRSC18698 |
| reporter signal went down | Gprk2 (G protein-coupled receptor kinase 2) | DRSC16682 |
| reporter signal went down | sr (stripe) | DRSC17067 |
| reporter signal went up | ec (echinus) | DRSC18658 |
| reporter signal went down | RpS3A (Ribosomal protein S3A) | DRSC17168 |
| reporter signal went up | CG32985 | DRSC02634 |
| reporter signal went down | CG33270 | DRSC10584 |
| reporter signal went down | Spt6 | DRSC18836 |
| reporter signal went up | dre4 | DRSC08714 |
| reporter signal went down | MED19 (Mediator complex subunit 19) | DRSC10516 |
| reporter signal went down | sals (sarcomere length short) | DRSC16113 |
| reporter signal went down | CG13737 | DRSC10064 |
| reporter signal went up | Bre1 | DRSC09742 |
| reporter signal went down | CngA (Cyclic nucleotide-gated ion channel subunit A) | DRSC06580 |
| reporter signal went down | DIP-alpha (Dpr-interacting protein alpha) | DRSC17892 |
| reporter signal went up | eIF3g1 (eukaryotic translation initiation factor 3 subunit g1) | DRSC18427 |
| reporter signal went down | B-H2 (BarH2) | DRSC19335 |
| reporter signal went down | mask (multiple ankyrin repeats single KH domain) | DRSC15370 |
| reporter signal went up | bsd (back seat driver) | DRSC05953 |
| reporter signal went down | CG5608 | DRSC15841 |
| reporter signal went down | LysS (Lysozyme S) | DRSC08677 |
| reporter signal went up | Spt20 | DRSC10280 |
| reporter signal went up | mxt (mextli) | DRSC00551 |
| reporter signal went down | CG5004 | DRSC20123 |
| reporter signal went down | rno (rhinoceros) | DRSC08584 |
| reporter signal went up | Axn (Axin) | DRSC14120 |
| reporter signal went down | CG13675 | DRSC10034 |
| reporter signal went up | CG5386 | DRSC15788 |
| reporter signal went down | RanBPM (Ran-binding protein M) | DRSC06079 |
| reporter signal went up | prd1 (pruning defect 1) | DRSC15227 |
| reporter signal went up | E(Pc) (Enhancer of Polycomb) | DRSC07408 |
| reporter signal went up | MED26 (Mediator complex subunit 26) | DRSC17147 |
| reporter signal went up | CG15894 | DRSC18099 |
| reporter signal went up | l(1)10Bb (lethal (1) 10Bb) | DRSC20346 |
| reporter signal went down | CarT (Carcinine transporter) | DRSC03196 |
| reporter signal went up | eIF1A (eukaryotic translation initiation factor 1A) | DRSC16937 |
| reporter signal went up | Prp8 (pre-mRNA processing factor 8) | DRSC07293 |
| reporter signal went down | CG8180 | DRSC07093 |
| reporter signal went up | Nup62 (Nucleoporin 62kD) | DRSC06970 |
| reporter signal went up (active) | CG8435 | DRSC07179 |
| reporter signal went up | NC2beta (Negative Cofactor 2beta) | DRSC01895 |
| reporter signal went down | Lrt (Leucine-rich tendon-specific protein) | DRSC06045 |
| reporter signal went up | Cyfip (Cytoplasmic FMR1 interacting protein) | DRSC15679 |
| reporter signal went up (active) | dgt1 (dim gamma-tubulin 1) | DRSC15301 |
| reporter signal went down | Wnk (Wnk kinase) | DRSC11813 |
| reporter signal went up | CG11123 | DRSC06040 |
| reporter signal went down | CG4502 | DRSC02755 |
| reporter signal went down | Sym (Symplekin) | DRSC12301 |
| reporter signal went down | OtopLc (Otopetrin-like c) | DRSC18083 |

In a second layout: entries from further up
reporter change after knockdown	target gene	amplicon
reporter signal went up	CG15894	DRSC18099
reporter signal went up	l(1)10Bb (lethal (1) 10Bb)	DRSC20346
reporter signal went down	CarT (Carcinine transporter)	DRSC03196
reporter signal went up	eIF1A (eukaryotic translation initiation factor 1A)	DRSC16937
reporter signal went up	Prp8 (pre-mRNA processing factor 8)	DRSC07293
reporter signal went down	CG8180	DRSC07093
reporter signal went up	Nup62 (Nucleoporin 62kD)	DRSC06970
